Measurements reported in PubChem BioAssay AID1159578 (Peter MacCallum Cancer Centre, 2015).

- Aim: 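Genome-wide hunt for genes controlling movement of lymphatic endothelial cells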 (primary screen)
- Cells: human lymphatic endothelial cells
- Reagents: siRNA pool against human genes, 40 nM
- Duration: 48 h after transfection
- Measurement: 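High-content imaging of dye-stained cells in a scratch assay measures filled wound area and nuclei per well; duplicate means given as ratio to mock and robust z-score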
- Scale: migration robust z-score: higher = faster migration into the scratch; nuclei per well: higher = more cells in the well
- Call rule: 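Migration changed when robust z exceeds 2 or falls below -2 and mean nuclei number is at least 3300; otherwise not called changed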
- Calls: active = migration changed; inactive = no migration change, or too few cells
The deposit covers about 18,000 reagents; this is an unselected part. Over the whole deposit, about 1,030 (5.7%) are marked active. 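Inactive calls also include pools with fewer than 3300 nuclei, whose migration was not assessed.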 The raw values are shown without normalisation. Not all columns of the deposit are shown.

RBM46 (RNA binding motif protein 46)
- migration robust z-score: -0.89
- migration class with cell-count check: migration z between -2 and 2; enough cells
- nuclei per well, duplicate mean: 5044
- Call: inactive

C1QTNF1 (C1q and TNF related 1)
- migration robust z-score: -0.32
- migration class with cell-count check: migration z between -2 and 2; enough cells
- nuclei per well, duplicate mean: 6697
- Call: inactive

EID2 (EP300 interacting inhibitor of differentiation 2)
- migration robust z-score: 0.16
- migration class with cell-count check: migration z between -2 and 2; enough cells
- nuclei per well, duplicate mean: 5464
- Call: inactive

KAT14 (lysine acetyltransferase 14)
- migration robust z-score: 0.8
- migration class with cell-count check: migration z between -2 and 2; enough cells
- nuclei per well, duplicate mean: 5825
- Call: inactive

KRTAP9-3 (keratin associated protein 9-3)
- migration robust z-score: -0.52
- migration class with cell-count check: migration z between -2 and 2; enough cells
- nuclei per well, duplicate mean: 5416
- Call: inactive

HNF1B (HNF1 homeobox B)
- migration robust z-score: 1.43
- migration class with cell-count check: migration z between -2 and 2; enough cells
- nuclei per well, duplicate mean: 5472
- Call: inactive

MLLT6 (MLLT6, PHD finger containing)
- migration robust z-score: 0.08
- migration class with cell-count check: migration z between -2 and 2; enough cells
- nuclei per well, duplicate mean: 4334
- Call: inactive

The list goes on; the last 2 above are carried over.
HNF1B (HNF1 homeobox B)
- migration robust z-score: 1.43
- migration class with cell-count check: migration z between -2 and 2; enough cells
- nuclei per well, duplicate mean: 5472
- Call: inactive

MLLT6 (MLLT6, PHD finger containing)
- migration robust z-score: 0.08
- migration class with cell-count check: migration z between -2 and 2; enough cells
- nuclei per well, duplicate mean: 4334
- Call: inactive

ZNF75D (zinc finger protein 75D)
- migration robust z-score: -0.18
- migration class with cell-count check: migration z between -2 and 2; enough cells
- nuclei per well, duplicate mean: 6334
- Call: inactive

ADAMTS17 (ADAM metallopeptidase with thrombospondin type 1 motif 17)
- migration robust z-score: -1.9
- migration class with cell-count check: migration z between -2 and 2; enough cells
- nuclei per well, duplicate mean: 6045
- Call: inactive

EFNB2 (ephrin B2)
- migration robust z-score: -0.81
- migration class with cell-count check: migration z between -2 and 2; enough cells
- nuclei per well, duplicate mean: 5248
- Call: inactive

NCR3 (natural cytotoxicity triggering receptor 3)
- migration robust z-score: 0.94
- migration class with cell-count check: migration z between -2 and 2; enough cells
- nuclei per well, duplicate mean: 6064
- Call: inactive

UBE2D4 (ubiquitin conjugating enzyme E2 D4)
- migration robust z-score: 1.82
- migration class with cell-count check: migration z between -2 and 2; enough cells
- nuclei per well, duplicate mean: 5220
- Call: inactive

MIGA1 (mitoguardin 1)
- migration robust z-score: 1.56
- migration class with cell-count check: migration z between -2 and 2; enough cells
- nuclei per well, duplicate mean: 4455
- Call: inactive

LRRC14B (leucine rich repeat containing 14B)
- migration robust z-score: -0.12
- migration class with cell-count check: migration z between -2 and 2; enough cells
- nuclei per well, duplicate mean: 6842
- Call: inactive

LAD1 (ladinin 1)
- migration robust z-score: -1.03
- migration class with cell-count check: migration z between -2 and 2; enough cells
- nuclei per well, duplicate mean: 4592
- Call: inactive

MOK (MOK protein kinase)
- migration robust z-score: -1.43
- migration class with cell-count check: migration z between -2 and 2; enough cells
- nuclei per well, duplicate mean: 3502
- Call: inactive

MTHFSD (methenyltetrahydrofolate synthetase domain containing)
- migration robust z-score: 0.49
- migration class with cell-count check: migration z between -2 and 2; enough cells
- nuclei per well, duplicate mean: 5503
- Call: inactive

KCNK7 (potassium two pore domain channel subfamily K member 7)
- migration robust z-score: -1.04
- migration class with cell-count check: migration z between -2 and 2; enough cells
- nuclei per well, duplicate mean: 6328
- Call: inactive

SNPH (syntaphilin)
- migration robust z-score: 0.31
- migration class with cell-count check: migration z between -2 and 2; enough cells
- nuclei per well, duplicate mean: 5404
- Call: inactive

SUMF2 (sulfatase modifying factor 2)
- migration robust z-score: 1.6
- migration class with cell-count check: migration z between -2 and 2; enough cells
- nuclei per well, duplicate mean: 5863
- Call: inactive

DKKL1 (dickkopf like acrosomal protein 1)
- migration robust z-score: 0.62
- migration class with cell-count check: migration z between -2 and 2; enough cells
- nuclei per well, duplicate mean: 5789
- Call: inactive
